Reference: patent publication EP2371816A1, “Aminocyclohexenone, their preparation and use as medicament against oxidative stress” (ABIOGEN PHARMA S.p.A., priority 2010, dated 2011)

System: cerebral oxidative stress induced in mice by doxorubicin
Assay: In vivo assay of cerebral oxidative stress induced in mice by doxorubicin
Method: The assay was carried out on compounds (1) and (3)-(6) and on edaravone (E) as comparative compound.
10 mice were used for each treatment group. For each compound 50 mg/kg were administered intraperitoneally (IP) for three consecutive days (day 0, 1 and 2); half the animals (5) also received IP 16.7 mg/kg of doxorubicin immediately after the first treatment (day 0). On the day after the last administration (day 3) the animals were killed by neck dislocation and the brains were removed, weighed and frozen in liquid nitrogen.
For the analyses of oxidative stress, 100 mg/ml of brain homogenate was prepared in Hebe buffer (pH 7.4 EDTA/HEPES^(**)) containing a mixture of enzyme inhibitors (Leupeptin, Pepstatin, Aprotinin, BHA). • ^(*) Hypotonic Extraction Buffer • ^(**) 4-2-hydroxyethyl-1-piperazinyl-ethanesulphonic acid
The evaluation parameters were: • BrW/BWi: ratio between final brain weight and initial body weight (day 0); • Prot. Hmg: total proteins in the homogenate (BCA method, i.e. bicinchoninic acid); • Prot. Ox: oxidized proteins in the Hmg by means of a colorimetric method using […] (DNPH); • GSH: reduced glutathione in the supernatant (sn) of the Hmg, obtained after precipitation with metaphosphoric acid (MPA), by means of a colorimetric method using […] (DTNB); • CAT: catalase in the Hmg by a colorimetric method using potassium dichromate; • SOD: superoxide dismutase by a colorimetric method using SOD Reagent (xanthine, EDTA, nitroblue tetrazole, Na2CO3, BSA, i.e. bovine serum albumin); • GST: glutathione S-transferase in the supernatant by a colorimetric method using chlorodinitrobenzene (CDNB) and GSH; and • GPx: glutathione peroxidase in the supernatant after addition of GSH and tert butyl hydroperoxide (t-BuOOH), heating and precipitation with MPA; followed by GSH method with DTNB.
All the parameters, with the exclusion of Brain/BWi and Prot. Hmg, were normalized for total Hmg proteins (Table 3). The D value standard deviations and the % incidence relative to V are given in italics.
The mean % effect, on all the parameters simultaneously, of the triple treatment in the healthy animals, as mean percentage variation relative to the vehicle (table 4). This value is useful as an approximate safety index of the oxidative state of the brain, i.e. the capacity of the compounds of the invention not to alter cerebral homeostasis in healthy animals.
The effect of the tested compounds on the "oxidized" animals was given as % inhibition relative to the percentage variation due to doxorubicin alone. The effect of the compounds on the oxidized animals can be expressed both as a function of the values of the vehicle (healthy, vehicle only) and as a function of the value of its own control (healthy, compound only): • Vehicle: percentage [(Compound+D)/V]x100/[(V+D)/V]x100 • Its own: percentage [(Compound+D)/Compound]x100/[(V+D)/V]x100

[1] = difference doxorubicin minus vehicle
[2] = doxorubicin group (D), mean of n=5 experiments, normalized for total Hmg proteins

Compound: COc1cccc2c1C(=O)c1c(O)c3c(c(O)c1C2=O)C[C@@](O)(C(=O)CO)C[C@@H]3O[C@H]1C[C@H](N)[C@H](O)[C@H](C)O1 [D, doxorubicin, reference compound]
- %D Brain/BWi (% incidence of D relative to V): 93.1%
- %D CAT (% incidence of D relative to V): 86.8%
- %D GPX (% incidence of D relative to V): 90.1%
- %D GSH (% incidence of D relative to V): 87.5%
- %D GST (% incidence of D relative to V): 90.9%
- %D Prot. Hmg (% incidence of D relative to V): 108.3%
- %D Prot. Ox (% incidence of D relative to V): 117.2%
- %D SOD (% incidence of D relative to V): 85.7%
- Diff. D-V Brain/BWi [1]: -1.3600 g/kg
- Diff. D-V CAT [1]: -0.3027 U/mg
- Diff. D-V GPX [1]: -0.5843 U/mg
- Diff. D-V GST [1]: -1.9000 µg/mg
- Diff. D-V Prot. Hmg [1]: 0.7397 mg/mL
- Diff. D-V Prot. Ox [1]: 0.4347 µmol H2O2/mg
- Diff. D-V SOD [1]: -5.3400 mU/mg
- CAT [2]: 1.9460 U/mg
- GPX [2]: 5.0010 U/mg
- GST [2]: 18.5067 µg/mg
- Prot. Ox [2]: 2.7720 µmol H2O2/mg
- SOD [2]: 31.2667 mU/mg
